Data from the supplement of paper PMC4604168 (melanoma cell lines).
This is one part of the list. Many values rest on one well or one pass, so single values are uncertain.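 Cells were imaged in 1,536-well plates, and nuclei stained with an antibody against cleaved PARP were counted against all DNA-stained nuclei to give the apoptosis fraction. Screening doses were chosen to leave most cells alive, and resting and induced cleaved-PARP levels differ strongly between cell lines.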

These compounds were tested on C32 (assay: cleaved PARP positive nuclei fraction relative to DMSO control; melanoma cells; higher = more apoptosis). Details: library dose: low library concentration; 72 h.

Structure (SMILES) | cleaved PARP positive nuclei fraction
CC(=O)O[C@@]12CO[C@@H]1C[C@H](O)[C@@]1(C)C(=O)[C@H](O)C3=C(C)[C@@H](OC(=O)[C@H](O)[C@@H](NC(=O)OC(C)(C)C)c4ccccc4)C[C@@](O)([C@@H](OC(=O)c4ccccc4)[C@H]21)C3(C)C [Docetaxel] + CCCCCCCCCCCC1=C(O)C(=O)C=C(O)C1=O [Embelin] (first compound 0.0001 µM, partner dose 1.2 µM) | 207%
NC1(c2ccc(-c3nc4ccn5c(=O)[nH]nc5c4cc3-c3ccccc3)cc2)CCC1 + CC(C)CCN1c2nc(Nc3cc(F)c(O)c(F)c3)ncc2N(C)C(=O)C1C [BID1870] (first compound 0.4 µM, partner dose 0.2 µM) | 143%
CS(=O)(=O)c1ccc(C(=O)Nc2ccc(Cl)c(-c3ccccn3)c2)c(Cl)c1 [vismodegib] + CCCCCCCCCCCC1=C(O)C(=O)C=C(O)C1=O [Embelin] (first compound 1 µM, partner dose 1.2 µM) | 98.3%
COc1ccc(C2=N[C@@H](c3ccc(Cl)cc3)[C@@H](c3ccc(Cl)cc3)N2C(=O)N2CCNC(=O)C2)c(OC(C)C)c1 [Nutlin-3] + COc1ccc(-c2ccc3c(N4CCOCC4)nc(N4C[C@@H](C)O[C@@H](C)C4)nc3n2)cc1CO [KU0063794] (first compound 0.1 µM, partner dose 0.02 µM) | 84.4%
Cn1cnc2c(F)c(Nc3ccc(Br)cc3Cl)c(C(=O)NOCCO)cc21 [selumetinib] + CC(C)CCN1c2nc(Nc3cc(F)c(O)c(F)c3)ncc2N(C)C(=O)C1C [BID1870] (first compound 0.015 µM, partner dose 0.2 µM) | 97.3%
CC1(C)CCC(c2ccc(Cl)cc2)=C(CN2CCN(c3ccc(C(=O)NS(=O)(=O)c4ccc(N[C@H](CCN5CCOCC5)CSc5ccccc5)c(S(=O)(=O)C(F)(F)F)c4)cc3)CC2)C1 + Cc1cc([N+](=O)[O-])ccc1NS(=O)(=O)c1cc(Cl)ccc1Cl [FH535] (first compound 0.4 µM, partner dose 1 µM) | 1390%
CCN(CC)CCNC(=O)c1c(C)[nH]c(/C=C2\C(=O)Nc3ccc(F)cc32)c1C [sunitinib] + Cc1cc([N+](=O)[O-])ccc1NS(=O)(=O)c1cc(Cl)ccc1Cl [FH535] (first compound 0.4 µM, partner dose 1 µM) | 90.5%
Cn1sc(=O)n(Cc2ccccc2)c1=O + COc1cc2ncnc(Nc3ccc(Oc4ccccc4)cc3)c2cc1OC [SrcI1] (first compound 0.4 µM, partner dose 2 µM) | 39.7%
NC1(c2ccc(-c3nc4ccn5c(=O)[nH]nc5c4cc3-c3ccccc3)cc2)CCC1 + COC(=O)c1sccc1S(=O)(=O)Nc1ccc(Nc2ccccc2)cc1OC [GSK0660] (first compound 0.4 µM, partner dose 1 µM) | 47.5%
CN(c1ncccc1CNc1nc(Nc2ccc3c(c2)CC(=O)N3)ncc1C(F)(F)F)S(C)(=O)=O + CC(C)CCN1c2nc(Nc3cc(F)c(O)c(F)c3)ncc2N(C)C(=O)C1C [BID1870] (first compound 0.08 µM, partner dose 0.2 µM) | 191%
Cn1sc(=O)n(Cc2ccccc2)c1=O + O=C(Nc1ccccc1)c1cc([N+](=O)[O-])ccc1Cl [GW9662] (first compound 0.4 µM, partner dose 2 µM) | 89.1%
NC(=O)c1ccc(N(C(N)=O)c2c(F)cccc2F)nc1-c1ccc(F)cc1F + Cn1cc(/C=C2\C(=O)Nc3cccnc32)c2ccccc21 [GW441756] (first compound 0.4 µM, partner dose 0.4 µM) | 40.3%
CCN(CC)CCNC(=O)c1c(C)[nH]c(/C=C2\C(=O)Nc3ccc(F)cc32)c1C [sunitinib] + COC(=O)c1sccc1S(=O)(=O)Nc1ccc(Nc2ccccc2)cc1OC [GSK0660] (first compound 0.4 µM, partner dose 1 µM) | 83.3%
Cn1sc(=O)n(Cc2ccccc2)c1=O + CC(C)CCN1c2nc(Nc3cc(F)c(O)c(F)c3)ncc2N(C)C(=O)C1C [BID1870] (first compound 0.4 µM, partner dose 0.2 µM) | 129%
Cn1sc(=O)n(Cc2ccccc2)c1=O + COc1cc(N2CCC(N3CCN(C)CC3)CC2)ccc1Nc1ncc(Cl)c(Nc2ccccc2S(=O)(=O)C(C)C)n1 [NVP-TAE684] (first compound 0.4 µM, partner dose 0.08 µM) | 149%
NC1(c2ccc(-c3nc4ccn5c(=O)[nH]nc5c4cc3-c3ccccc3)cc2)CCC1 + CCc1ccc(CCOc2ccc(CC3SC(=O)NC3=O)cc2)nc1 [pioglitazone] (first compound 0.4 µM, partner dose 2 µM) | 87.7%
NC(=O)c1ccc(N(C(N)=O)c2c(F)cccc2F)nc1-c1ccc(F)cc1F + COc1cc(N2CCC(N3CCN(C)CC3)CC2)ccc1Nc1ncc(Cl)c(Nc2ccccc2S(=O)(=O)C(C)C)n1 [NVP-TAE684] (first compound 0.4 µM, partner dose 0.08 µM) | 278%
NC1(c2ccc(-c3nc4ccn5c(=O)[nH]nc5c4cc3-c3ccccc3)cc2)CCC1 + Cc1cc([N+](=O)[O-])ccc1NS(=O)(=O)c1cc(Cl)ccc1Cl [FH535] (first compound 0.4 µM, partner dose 1 µM) | 237%
Cn1cnc2c(F)c(Nc3ccc(Br)cc3Cl)c(C(=O)NOCCO)cc21 [selumetinib] + Cn1cc(/C=C2\C(=O)Nc3cccnc32)c2ccccc21 [GW441756] (first compound 0.015 µM, partner dose 0.4 µM) | 80.1%
CC(=O)O[C@@]12CO[C@@H]1C[C@H](O)[C@@]1(C)C(=O)[C@H](O)C3=C(C)[C@@H](OC(=O)[C@H](O)[C@@H](NC(=O)OC(C)(C)C)c4ccccc4)C[C@@](O)([C@@H](OC(=O)c4ccccc4)[C@H]21)C3(C)C [Docetaxel] + COc1ccc2c(c1)CCC1C2CCC2(C)C(NCCCCCCN3C(=O)C=CC3=O)CCC12 [U73122] (first compound 0.0001 µM, partner dose 0.4 µM) | 45.7%
CN(c1ncccc1CNc1nc(Nc2ccc3c(c2)CC(=O)N3)ncc1C(F)(F)F)S(C)(=O)=O + Oc1cc(-c2nc(-c3ccccc3)[nH]c2-c2ccncc2)ccc1Cl [L779450] (first compound 0.08 µM, partner dose 0.2 µM) | 173%
CCN(CC)CCNC(=O)c1c(C)[nH]c(/C=C2\C(=O)Nc3ccc(F)cc32)c1C [sunitinib] + O=c1cc(-c2cccc3c2Sc2ccccc2S3)oc(N2CCOCC2)c1 [KU55933] (first compound 0.4 µM, partner dose 1 µM) | 90.5%
CC1(C)CCC(c2ccc(Cl)cc2)=C(CN2CCN(c3ccc(C(=O)NS(=O)(=O)c4ccc(N[C@H](CCN5CCOCC5)CSc5ccccc5)c(S(=O)(=O)C(F)(F)F)c4)cc3)CC2)C1 + COC(=O)c1sccc1S(=O)(=O)Nc1ccc(Nc2ccccc2)cc1OC [GSK0660] (first compound 0.4 µM, partner dose 1 µM) | 129%
COc1ccc(C2=N[C@@H](c3ccc(Cl)cc3)[C@@H](c3ccc(Cl)cc3)N2C(=O)N2CCNC(=O)C2)c(OC(C)C)c1 [Nutlin-3] + COc1ccc(COc2ccc(Cc3cnc(N)nc3N)cc2OC)cc1 [GW2580] (first compound 0.1 µM, partner dose 1 µM) | 70.3%
Cn1cnc2c(F)c(Nc3ccc(Br)cc3Cl)c(C(=O)NOCCO)cc21 [selumetinib] + COc1ccc2c(c1)CCC1C2CCC2(C)C(NCCCCCCN3C(=O)C=CC3=O)CCC12 [U73122] (first compound 0.015 µM, partner dose 0.4 µM) | 78.4%
CC(=O)O[C@@]12CO[C@@H]1C[C@H](O)[C@@]1(C)C(=O)[C@H](O)C3=C(C)[C@@H](OC(=O)[C@H](O)[C@@H](NC(=O)OC(C)(C)C)c4ccccc4)C[C@@](O)([C@@H](OC(=O)c4ccccc4)[C@H]21)C3(C)C [Docetaxel] + Cn1cc(/C=C2\C(=O)Nc3cccnc32)c2ccccc21 [GW441756] (first compound 0.0001 µM, partner dose 0.4 µM) | 361%
NC(=O)c1ccc(N(C(N)=O)c2c(F)cccc2F)nc1-c1ccc(F)cc1F + O=C(Nc1ccccc1)c1cc([N+](=O)[O-])ccc1Cl [GW9662] (first compound 0.4 µM, partner dose 2 µM) | 121%
CC1(C)CCC(c2ccc(Cl)cc2)=C(CN2CCN(c3ccc(C(=O)NS(=O)(=O)c4ccc(N[C@H](CCN5CCOCC5)CSc5ccccc5)c(S(=O)(=O)C(F)(F)F)c4)cc3)CC2)C1 + O=C(Nc1ccccc1)c1cc([N+](=O)[O-])ccc1Cl [GW9662] (first compound 0.4 µM, partner dose 2 µM) | 119%
CCN(CC)CCNC(=O)c1c(C)[nH]c(/C=C2\C(=O)Nc3ccc(F)cc32)c1C [sunitinib] + COc1ccc(COc2ccc(Cc3cnc(N)nc3N)cc2OC)cc1 [GW2580] (first compound 0.4 µM, partner dose 1 µM) | 42%
NC(=O)c1ccc(N(C(N)=O)c2c(F)cccc2F)nc1-c1ccc(F)cc1F + O=c1cc(-c2cccc3c2Sc2ccccc2S3)oc(N2CCOCC2)c1 [KU55933] (first compound 0.4 µM, partner dose 1 µM) | 27.4%

An excerpt of these results, in markdown.

| Structure (SMILES) | cleaved PARP positive nuclei fraction |
| --- | --- |
| Cn1sc(=O)n(Cc2ccccc2)c1=O + COc1cc2ncnc(Nc3ccc(Oc4ccccc4)cc3)c2cc1OC [SrcI1] (first compound 0.4 µM, partner dose 2 µM) | 39.7% |
| NC1(c2ccc(-c3nc4ccn5c(=O)[nH]nc5c4cc3-c3ccccc3)cc2)CCC1 + COC(=O)c1sccc1S(=O)(=O)Nc1ccc(Nc2ccccc2)cc1OC [GSK0660] (first compound 0.4 µM, partner dose 1 µM) | 47.5% |
